Measurements reported in PubChem BioAssay AID504774 (Drosophila RNAi Screening Center, 2011)
Test: 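Fly genes whose loss alters survival after alkylation damage to DNA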 (primary screen). Cells: Drosophila Kc167 cells. Reagents: long dsRNA against Drosophila genes, about 0.25 µg dsRNA per well. Timing: about 6 days: 3 days knock-down, then 3 days with or without MMS. Conditions: methyl methanesulphonate 0.004% (w/v) for 3 days after knock-down. Read-out: 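ATP-dependent luminescence as a measure of live cells in MMS-exposed wells, quantile normalised within each plate, with replicate values also given as a mean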. Reading the numbers: mean viability with MMS and viability with MMS: higher = more surviving cells after MMS.
The deposit covers about 23,000 reagents; this is a random part of those with a known target gene and a result. 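Values are quantile-normalised luminescence on an arbitrary scale; higher means more cells surviving MMS.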 Reagents against one gene are numbered here. Not all columns of the deposit are shown.

stck (GeneID 40999)
- mean viability with MMS: 3.67e6
- viability with MMS, replicate 1: 4.15e6

l(1)G0004 (GeneID 33033)
- mean viability with MMS: 3.45e6
- viability with MMS, replicate 1: 3.93e6

Cul4 (GeneID 35780)
- mean viability with MMS: 3.35e6
- viability with MMS, replicate 1: 3.81e6

Dr (GeneID 45285) #1
- mean viability with MMS: 3.72e6
- viability with MMS, replicate 1: 4.18e6

Dr (GeneID 45285) #2
- mean viability with MMS: 3.12e6
- viability with MMS, replicate 1: 3.74e6

Or98a (GeneID 43341)
- mean viability with MMS: 3.64e6
- viability with MMS, replicate 1: 4.18e6

CG6788 (GeneID 32773)
- mean viability with MMS: 3.50e6
- viability with MMS, replicate 1: 4.02e6

lncRNA:CR31044 (GeneID 10178917)
- mean viability with MMS: 3.68e6
- viability with MMS, replicate 1: 4.12e6

CG33704 (GeneID 3772359)
- mean viability with MMS: 3.46e6
- viability with MMS, replicate 1: 4.01e6

FucTC (GeneID 3355171)
- mean viability with MMS: 2.56e6
- viability with MMS, replicate 1: 4.25e6

CG5439 (GeneID 34710)
- mean viability with MMS: 3.67e6
- viability with MMS, replicate 1: 4.20e6

b6 (GeneID 31124)
- mean viability with MMS: 3.46e6
- viability with MMS, replicate 1: 3.86e6

CG5355 (GeneID 34421)
- mean viability with MMS: 3.66e6
- viability with MMS, replicate 1: 4.45e6

CG13231 (GeneID 36169)
- mean viability with MMS: 3.50e6
- viability with MMS, replicate 1: 3.93e6

Cog6 (GeneID 35953)
- mean viability with MMS: 3.72e6
- viability with MMS, replicate 1: 4.33e6

CG13506 (GeneID 37556)
- mean viability with MMS: 3.35e6
- viability with MMS, replicate 1: 3.84e6

CG30099 (GeneID 36818)
- mean viability with MMS: 3.61e6
- viability with MMS, replicate 1: 4.07e6

Ttc26 (GeneID 41905)
- mean viability with MMS: 2.02e6
- viability with MMS, replicate 1: 4.28e6

CG42534 (GeneID 43298) #1
- mean viability with MMS: 3.30e6
- viability with MMS, replicate 1: 3.68e6

CG42534 (GeneID 43298) #2
- mean viability with MMS: 3.20e6
- viability with MMS, replicate 1: 3.61e6

CG42534 (GeneID 43298) #3
- mean viability with MMS: 3.58e6
- viability with MMS, replicate 1: 4.13e6

CG42534 (GeneID 43298) #4
- mean viability with MMS: 3.64e6
- viability with MMS, replicate 1: 4.27e6

CG42534 (GeneID 43298) #5
- mean viability with MMS: 2.63e6
- viability with MMS, replicate 1: 3.56e6

CG42750 (GeneID 35090) #1
- mean viability with MMS: 3.22e6
- viability with MMS, replicate 1: 3.46e6

CG42750 (GeneID 35090) #2
- mean viability with MMS: 3.30e6
- viability with MMS, replicate 1: 3.81e6

CG42750 (GeneID 35090) #3
- mean viability with MMS: 3.37e6
- viability with MMS, replicate 1: 3.79e6

CG42750 (GeneID 35090) #4
- mean viability with MMS: 3.59e6
- viability with MMS, replicate 1: 4.12e6

CG42750 (GeneID 35090) #5
- mean viability with MMS: 3.61e6
- viability with MMS, replicate 1: 4.10e6

Looked up above:
Value for CG42534 (GeneID 43298) #2 in “mean viability with MMS”: 3.20e6
CG13506 (GeneID 37556), viability with MMS, replicate 1 → 3.84e6
Entry of b6 (GeneID 31124) under “viability with MMS, replicate 1”: 3.86e6
lncRNA:CR31044 (GeneID 10178917), mean viability with MMS → 3.68e6
CG42534 (GeneID 43298) #4, viability with MMS, replicate 1 = 4.27e6
